Assay results from patent US20160176970A1 (published 2016).
Results are given in words; binding and its absence hold for the method and conditions named. Some results given as binding are weak or reduced against the parent protein; the word gives no strength.

The chains behind the UniProt entries cited, without tags or fusion partners. Where a name states a change or a piece, a line headed by the entry shows the natural chain unless it says otherwise.
UniProt P17301: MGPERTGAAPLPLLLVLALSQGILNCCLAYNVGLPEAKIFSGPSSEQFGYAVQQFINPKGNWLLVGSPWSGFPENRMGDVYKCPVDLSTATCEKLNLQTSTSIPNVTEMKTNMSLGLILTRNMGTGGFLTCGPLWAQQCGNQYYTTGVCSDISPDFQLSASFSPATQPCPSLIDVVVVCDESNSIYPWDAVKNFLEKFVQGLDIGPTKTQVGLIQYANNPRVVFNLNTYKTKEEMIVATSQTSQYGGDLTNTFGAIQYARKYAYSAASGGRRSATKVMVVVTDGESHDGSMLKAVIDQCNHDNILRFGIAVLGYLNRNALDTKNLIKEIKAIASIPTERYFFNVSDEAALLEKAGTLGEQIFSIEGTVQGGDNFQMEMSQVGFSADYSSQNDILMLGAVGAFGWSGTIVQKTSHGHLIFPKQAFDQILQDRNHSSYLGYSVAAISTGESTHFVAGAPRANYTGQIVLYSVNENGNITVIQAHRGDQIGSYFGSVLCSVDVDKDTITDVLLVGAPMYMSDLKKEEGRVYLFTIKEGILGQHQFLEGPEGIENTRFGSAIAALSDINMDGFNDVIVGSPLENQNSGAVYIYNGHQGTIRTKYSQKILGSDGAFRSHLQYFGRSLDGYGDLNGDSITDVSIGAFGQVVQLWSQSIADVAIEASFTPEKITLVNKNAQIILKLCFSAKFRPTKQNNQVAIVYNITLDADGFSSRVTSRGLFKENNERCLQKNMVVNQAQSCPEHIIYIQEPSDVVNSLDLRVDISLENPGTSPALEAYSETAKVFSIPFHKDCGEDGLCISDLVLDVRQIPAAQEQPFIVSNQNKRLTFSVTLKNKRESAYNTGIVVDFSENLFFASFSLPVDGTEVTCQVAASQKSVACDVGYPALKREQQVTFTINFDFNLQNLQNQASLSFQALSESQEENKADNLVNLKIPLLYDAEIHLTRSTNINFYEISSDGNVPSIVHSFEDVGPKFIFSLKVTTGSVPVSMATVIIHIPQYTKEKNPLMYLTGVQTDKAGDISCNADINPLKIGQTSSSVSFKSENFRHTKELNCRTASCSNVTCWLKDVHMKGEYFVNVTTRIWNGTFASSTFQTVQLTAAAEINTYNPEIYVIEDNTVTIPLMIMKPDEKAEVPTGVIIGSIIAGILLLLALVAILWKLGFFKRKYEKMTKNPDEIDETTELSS

Assays:
[1] = molecular target: integrin α2 I domain (recombinant, analyte of the Biacore experiments) (human) (UniProt P17301); test: SPR Biacore 3000
[2] = molecular target: integrin α2 I domain (recombinant, analyte of the Biacore experiments) (human) (UniProt P17301); test: SPR Biacore 3000; TMC2206 captured by anti-human Fc (MAB1302), I domain bound, Fab injected
[3] = molecular target: integrin α2 I domain (recombinant, analyte of the Biacore experiments) (human) (UniProt P17301); test: SPR Biacore; TMC2206 captured by anti-human Fc, I domain bound, Fab injected
[4] = molecular target: integrin α2 I domain (recombinant, analyte of the Biacore experiments) (human) (UniProt P17301); test: SPR Biacore 3000; Fab amine-coupled at 500 RU, I domain captured, TMC2206 injected
[5] = molecular target: integrin α2 I domain (recombinant, analyte of the Biacore experiments) (human) (UniProt P17301); test: SPR Biacore, dissociation constants (FIG. 11)
[6] = molecular target: integrin α2 I domain (recombinant, analyte of the Biacore experiments) (human) (UniProt P17301); test: SPR Biacore; Fab immobilised, I domain captured, TMC2206 injected

Measured: binding

B1: chimeric anti α2-integrin-Fab (Fab, V domains shown)
VH: QVQLHQPGAELVKPGAPVKLSCKASGYTFTSYWMNWVKQRPGRGLEWIGRIDPSDSETHYNQKFKDKATLTVDKSSSTAYIQLSSLTSEDSAVYYCAKVGRGYFDYWGQGTTLTVSS
VL: NIVLTQSPASLAVSLGQRATISCRASESVESYGNSFIYWYQQKPGQAPKLLIYLASNLASGVPARFSGSGSRTDFTLTIDPVEADDAATYYCQQNNEDPYTFGGGTKLEIKR
binds: [1] | [2] | [3]

B2: TMC2206, humanized hIgG4 anti-alpha 2 integrin antibody (the comparator) (antibody, V domains shown)
VH: QVQLQESGPGLVKPSETLSLTCTVSGFSLTNYGIHWIRQPPGKGLEWLGVIWARGFTNYNSALMSRLTISKDNSKNQVSLKLSSVTAADTAVYYCARANDGVYYAMDYWGQGTLVTVSS
VL: DFVMTQSPAFLSVTPGEKVTITCSAQSSVNYIHWYQQKPDQAPKKLIYDTSKLASGVPSRFSGSGSGTDYTFTISSLEAEDAATYYCQQWTTNPLTFGQGTKVEIKR
binds: [4] | [5] | [6]
